In the supplement of paper PMC10735217 one finds TEAD-luciferase reporter activity data, which are given here for 29 compounds.

The assay concerns HEK293A TEAD-LUC reporter. Briefly: TEAD-luciferase reporter activity (YAP activation), robust Z score vs plate; higher = stronger YAP/TEAD activation. Conditions: 24 h.

Structures can show the parent of a compound that is named as a salt. This is one part of the list. This data set is noisy: repeats of one test often differ as much as different tests do.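 Human kidney-derived cells stably carry a construct in which eight TEAD-binding elements drive luciferase, measured by luminescence in a drug-repurposing library screen. A hit is any compound whose signal exceeds the plate mean by more than five robust Z scores.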

`N=C(N)c1ccc(CNC(=O)[C@@H]2CCCN2C(=O)[C@H](NCC(=O)O)C(c2ccccc2)c2ccccc2)s1`: the TEAD-luciferase reporter activity is inactive: -1.15 (compound concentration: 200 nM), inactive: -0.76 (compound concentration: 2 uM) and inactive: 0.294 (compound concentration: 10 uM).
For `Cc1ccc(CCCC(=O)c2ccc(CCC(C)(N)CO)n2C)cc1` (centres undefined), the TEAD-luciferase reporter activity is, setting by setting: (compound concentration: 200 nM) inactive: 0.368; (compound concentration: 2 uM) inactive: 0.0718; (compound concentration: 10 uM) inactive: 2.3.
Take `CC(=O)Oc1ccc(C(c2ccc(OC(C)=O)cc2)c2ccccn2)cc1` [Viraplex]: the TEAD-luciferase reporter activity (compound concentration: 2 uM) was inactive: 0.475.
With `CC(=O)Oc1ccc(C(c2ccc(OC(C)=O)cc2)c2ccccn2)cc1` [Bisacodyl], the TEAD-luciferase reporter activity runs as follows: (compound concentration: 200 nM) inactive: 0.451; (compound concentration: 10 uM) inactive: -2.04.
`c1ccc(CCNCCOc2ccccc2)cc1`: the TEAD-luciferase reporter activity (compound concentration: 200 nM) is inactive: 2.62, the TEAD-luciferase reporter activity (compound concentration: 2 uM) is inactive: -0.48 and the TEAD-luciferase reporter activity (compound concentration: 10 uM) is inactive: 2.24.
Take `CC1=C(C)C(=O)C(Cc2cccnc2)=C(C)C1=O`: the TEAD-luciferase reporter activity by setting is: (compound concentration: 200 nM) inactive: -0.268; (compound concentration: 2 uM) inactive: -0.689; (compound concentration: 10 uM) inactive: 0.327.
With `CC(C)n1c(=O)nc(-c2ccc(F)cc2)c2cc3c(cc21)OCO3`, the TEAD-luciferase reporter activity runs as follows: (compound concentration: 200 nM) inactive: -1.16; (compound concentration: 2 uM) inactive: -1.79; (compound concentration: 10 uM) inactive: -1.91.
For the compound `CCNC(=O)[C@@H]1CCCN1C(=O)[C@H](CCCNC(=N)N)NC(=O)[C@H](CC(C)C)NC(=O)[C@@H](CC(C)C)NC(=O)[C@H](Cc1ccc(O)cc1)NC(=O)[C@H](CO)NC(=O)[C@H](Cc1c[nH]c2ccccc12)NC(=O)[C@H](Cc1c[nH]cn1)NC(=O)[C@@H]1CCC(=O)N1` [leuprorelin acetate], the TEAD-luciferase reporter activity (compound concentration: 2 uM) was inactive: -0.826.
Consider `CCNC(=O)[C@@H]1CCCN1C(=O)[C@H](CCCNC(=N)N)NC(=O)[C@H](CC(C)C)NC(=O)[C@@H](CC(C)C)NC(=O)[C@H](Cc1ccc(O)cc1)NC(=O)[C@H](CO)NC(=O)[C@H](Cc1c[nH]c2ccccc12)NC(=O)[C@H](Cc1c[nH]cn1)NC(=O)[C@@H]1CCC(=O)N1` [leuprorelin acetate, Camurus], for which the TEAD-luciferase reporter activity runs as follows: (compound concentration: 200 nM) inactive: -0.898; (compound concentration: 10 uM) inactive: 1.
As to `COc1cccc(-c2ccc(C(=O)NCCNC(=O)Cc3cccc(Cl)c3)cc2)c1`, the TEAD-luciferase reporter activity is, setting by setting: (compound concentration: 200 nM) inactive: -0.929; (compound concentration: 10 uM) active: 12.4.
`CC(C)(C)C(=O)N1CCCC1C(=O)N1CCC(c2ccccc2)CC1` (centres undefined): the TEAD-luciferase reporter activity reads like this: (compound concentration: 200 nM) inactive: -1.19; (compound concentration: 10 uM) inactive: 2.21.
For the compound `CCCc1cc(C(N)=S)ccn1`, the TEAD-luciferase reporter activity was inactive: -1.07 (compound concentration: 200 nM) and inactive: -0.856 (compound concentration: 10 uM).
Regarding `CCCc1cc(C(N)=S)ccn1` [Protionamide], the TEAD-luciferase reporter activity (compound concentration: 2 uM) was inactive: 3.78.
On to `NC(=O)C1CCN(c2ncccc2NC(=O)c2coc(N3CCOCC3)n2)CC1`, for which the TEAD-luciferase reporter activity runs as follows: (compound concentration: 200 nM) inactive: 0.0179; (compound concentration: 2 uM) inactive: -0.126; (compound concentration: 10 uM) inactive: -0.31.
Consider `CC(COc1ccc(N2CCN(c3ccncc3)CC2)cc1)CC(=O)O` (centres undefined), for which the TEAD-luciferase reporter activity by setting is: (compound concentration: 200 nM) inactive: -1.17; (compound concentration: 2 uM) inactive: 0.156; (compound concentration: 10 uM) inactive: 0.314.
`CC1(C)Oc2ncnc(N)c2N=C1c1ccc([C@H]2CC[C@H](CC(=O)O)CC2)cc1`: the TEAD-luciferase reporter activity reads like this: (compound concentration: 200 nM) inactive: -0.626; (compound concentration: 2 uM) inactive: 0.108; (compound concentration: 10 uM) inactive: 0.886.
Take `Cc1ccc2c(c1)c(-c1ccccc1)[n+]1n2CCC1`: the TEAD-luciferase reporter activity (compound concentration: 200 nM) is inactive: -1.64, the TEAD-luciferase reporter activity (compound concentration: 2 uM) is inactive: 0.274 and the TEAD-luciferase reporter activity (compound concentration: 10 uM) was inactive: -0.862.
In the case of `CCn1ccnc1CC1COc2ccccc2O1` (centres undefined) [Imiloxan hydrochloride], the TEAD-luciferase reporter activity reads like this: (compound concentration: 200 nM) inactive: -1.12; (compound concentration: 10 uM) inactive: -1.41.
Turning to `CCn1ccnc1CC1COc2ccccc2O1` (centres undefined) [Imiloxan], the TEAD-luciferase reporter activity (compound concentration: 2 uM) is inactive: 1.64.
Regarding `CC(=O)N1CCC2(CC1)CN(C(=O)CCCN(C)C)Cc1ccccc1O2`, the TEAD-luciferase reporter activity was inactive: -1.47 (compound concentration: 200 nM) and active: 6.62 (compound concentration: 10 uM).
`CSc1ccc(-c2nc3n(c2-c2ccncc2)CCC3)cc1`: the TEAD-luciferase reporter activity is inactive: 0.35 (compound concentration: 200 nM), inactive: -1.14 (compound concentration: 2 uM) and inactive: 0.399 (compound concentration: 10 uM).
As to `C[C@@H](NC(=O)c1ccccc1OC(=O)CCCC[n+]1ccccc1)C(N)=O` [analog of AG-9901], the TEAD-luciferase reporter activity reads like this: (compound concentration: 200 nM) inactive: 0.76; (compound concentration: 2 uM) inactive: 0.302; (compound concentration: 10 uM) inactive: -0.515.
Take `O=C(NCc1ccc(OC(F)(F)F)c(F)c1)[C@H]1CN(c2nc3nc(C4CC4)ncc3s2)CCN1S(=O)(=O)c1ccc(C(F)(F)F)cc1`: the TEAD-luciferase reporter activity is inactive: 0.764 (compound concentration: 200 nM), inactive: 2.2 (compound concentration: 2 uM) and inactive: 1.08 (compound concentration: 10 uM).
For the compound `O=C(O)C1CC2CCC1CC2` (centres undefined) [Sacricin], the TEAD-luciferase reporter activity (compound concentration: 2 uM) was inactive: -1.03.
As for `O=C(O)C1CC2CCC1CC2` (centres undefined), the TEAD-luciferase reporter activity was inactive: -0.823 (compound concentration: 200 nM) and inactive: 0.141 (compound concentration: 10 uM).
For `CCn1ccnc1` [1-ethyl-1H-imidazole], the TEAD-luciferase reporter activity (compound concentration: 200 nM) was inactive: 0.508, the TEAD-luciferase reporter activity (compound concentration: 2 uM) is inactive: -0.968 and the TEAD-luciferase reporter activity (compound concentration: 10 uM) is inactive: -1.48.
On to `CN(C(=O)c1c(O)c2ccccc2n(C)c1=O)c1ccccc1` [Roquinimex], for which the TEAD-luciferase reporter activity is, setting by setting: (compound concentration: 200 nM) inactive: -0.374; (compound concentration: 2 uM) inactive: -1.53; (compound concentration: 10 uM) inactive: -1.4.
Regarding `CC(C)(CO)n1cc(C(=O)c2cncc(NC(=O)Cc3ccc(Cl)cn3)c2)c2cnc(N)nc21`, the TEAD-luciferase reporter activity (compound concentration: 200 nM) is inactive: -1.29, the TEAD-luciferase reporter activity (compound concentration: 2 uM) was inactive: -2.2 and the TEAD-luciferase reporter activity (compound concentration: 10 uM) was inactive: -0.252.
The corresponding values for `COc1cccc2[nH]c3c4c(c5c(c3c12)C(=O)N(CN1CCN(C)CC1)C5=O)CCC4` are inactive: -1.07, inactive: -0.181 and inactive: -0.176.
